One test deals with HIF-1α, exogenous (UniProt Q16665). Put plainly: co-IP; HEK-293T cells co-transfected with tagged constructs; lysed supernatant incubated with Tag-conjugated beads; western blot; for PKM2/HIF-1α with rising amounts of TIPE. Background: A western blot detects proteins with antibodies after separation by electrophoresis.
The target in test [1] is T1, TIPE (TNFAIP8, tumor necrosis factor alpha-induced protein 8), endogenous (human (endogenous in A375 and G361)) (UniProt O95379).
T1 sequence: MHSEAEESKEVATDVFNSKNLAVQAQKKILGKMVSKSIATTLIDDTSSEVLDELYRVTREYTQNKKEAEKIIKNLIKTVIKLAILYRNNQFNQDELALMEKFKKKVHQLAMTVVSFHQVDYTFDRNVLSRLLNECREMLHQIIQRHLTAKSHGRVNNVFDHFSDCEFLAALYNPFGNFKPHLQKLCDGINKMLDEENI
Put plainly: co-IP; IP and western blot of the endogenous proteins in A375 cells.

By UniProt entry, the sequences of proteins in these tests, tags left out.
UniProt Q16665: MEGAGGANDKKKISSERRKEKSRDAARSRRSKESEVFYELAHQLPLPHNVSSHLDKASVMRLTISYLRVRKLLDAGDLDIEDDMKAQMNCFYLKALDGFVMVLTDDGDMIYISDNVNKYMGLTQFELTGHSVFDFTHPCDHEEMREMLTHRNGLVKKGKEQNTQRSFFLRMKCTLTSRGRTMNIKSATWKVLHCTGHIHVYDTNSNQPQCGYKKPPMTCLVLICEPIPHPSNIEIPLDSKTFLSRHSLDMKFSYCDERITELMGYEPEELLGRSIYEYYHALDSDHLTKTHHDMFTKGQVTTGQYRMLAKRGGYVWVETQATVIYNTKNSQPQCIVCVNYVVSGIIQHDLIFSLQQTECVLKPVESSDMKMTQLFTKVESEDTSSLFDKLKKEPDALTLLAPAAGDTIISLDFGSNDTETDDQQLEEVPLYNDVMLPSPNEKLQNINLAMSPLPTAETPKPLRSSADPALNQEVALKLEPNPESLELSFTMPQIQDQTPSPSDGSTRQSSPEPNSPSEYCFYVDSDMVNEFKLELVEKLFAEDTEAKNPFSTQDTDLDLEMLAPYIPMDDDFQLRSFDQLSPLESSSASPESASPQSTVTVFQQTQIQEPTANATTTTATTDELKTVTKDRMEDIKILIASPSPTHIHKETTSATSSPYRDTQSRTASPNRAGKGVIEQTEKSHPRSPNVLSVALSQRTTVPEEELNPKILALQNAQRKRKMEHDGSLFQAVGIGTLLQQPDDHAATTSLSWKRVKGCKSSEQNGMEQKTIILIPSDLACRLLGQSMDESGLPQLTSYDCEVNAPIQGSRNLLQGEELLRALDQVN
UniProt P14618: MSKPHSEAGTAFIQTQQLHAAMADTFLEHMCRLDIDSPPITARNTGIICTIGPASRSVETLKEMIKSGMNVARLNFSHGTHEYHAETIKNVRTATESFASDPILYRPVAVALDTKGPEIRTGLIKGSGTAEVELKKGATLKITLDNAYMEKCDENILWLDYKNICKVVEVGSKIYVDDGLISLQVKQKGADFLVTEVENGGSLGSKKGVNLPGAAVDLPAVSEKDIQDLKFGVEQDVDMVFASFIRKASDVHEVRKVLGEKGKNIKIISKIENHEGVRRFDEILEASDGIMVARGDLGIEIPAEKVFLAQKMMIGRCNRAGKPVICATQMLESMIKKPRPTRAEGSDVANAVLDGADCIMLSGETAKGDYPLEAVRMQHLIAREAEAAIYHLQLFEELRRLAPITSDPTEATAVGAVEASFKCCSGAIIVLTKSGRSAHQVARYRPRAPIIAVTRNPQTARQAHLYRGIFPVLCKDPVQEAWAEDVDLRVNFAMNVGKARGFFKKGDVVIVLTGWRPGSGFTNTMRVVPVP

Test [2] deals with T1, TIPE (TNFAIP8, tumor necrosis factor alpha-induced protein 8), endogenous (human (endogenous in A375 and G361)). Put plainly: proximity ligation; Duolink In Situ PLA kit on endogenous proteins in melanoma cells (G361, A375); for PKM2/HIF-1α with TIPE interference (A375) or TIPE overexpression (G361).
The target of test [3] is HIF-1α, endogenous (human (endogenous in A375 and G361)) (UniProt Q16665). The test is described as above.

Results are given in words; binding and its absence hold for the method and conditions named. Binding seen in cells or lysates may run through a third protein. Some entries that bind do so weakly or less than the wild type.

Consider “Flag-tagged PKM2 (from UniProt P14618 1-531) (enzyme)”, for which the binding result in the test with HIF-1α, exogenous was “binds”.
Turning to “pyruvate kinase M2 (PKM2), endogenous (from UniProt P14618 1-531) (enzyme)”, the binding entry in test [1], in test [2] and in test [3] was “binds” throughout.

These data come from publication PMC11677236.
